Isolated mass and isolated yield data for 2 substances are collected here from paper PMC12128024 (Bioconjugate Chemistry, 2025).

The data set in a line: general procedure: Fmoc solid-phase peptide synthesis; chlorotrityl resin; HBTU (Arg), HATU (Fmoc-βAlaBpy-OH); PyAOP for cyclisation. Conditions: whole synthesis, scale 0.05 mmol, TFA salt.

Take cyclo-(βAlaBpy-Arg3)3: the isolated mass is 50.2 mg and the isolated yield came to 68%.

cyclo-(βAlaBpy-Arg3)2: the isolated mass turned out to be 52.1 mg and the isolated yield is listed as 71%.
